The target in the experiment is T1, Argininosuccinate synthase 1 (ASS1) (human (cDNA of HeLa cells)) (UniProt P00966).
T1 sequence: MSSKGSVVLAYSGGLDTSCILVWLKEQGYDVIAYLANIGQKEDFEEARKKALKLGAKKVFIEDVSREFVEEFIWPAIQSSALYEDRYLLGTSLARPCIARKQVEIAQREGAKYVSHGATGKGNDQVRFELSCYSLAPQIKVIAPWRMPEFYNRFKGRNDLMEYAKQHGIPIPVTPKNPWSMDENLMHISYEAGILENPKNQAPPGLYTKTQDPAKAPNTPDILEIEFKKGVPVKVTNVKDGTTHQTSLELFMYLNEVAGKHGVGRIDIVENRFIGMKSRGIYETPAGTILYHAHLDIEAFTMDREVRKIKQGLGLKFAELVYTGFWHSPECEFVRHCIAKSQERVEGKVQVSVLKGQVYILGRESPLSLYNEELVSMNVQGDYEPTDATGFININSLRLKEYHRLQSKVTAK
In words: co-IP.

The values below come from doi:10.1101/2024.05.08.593129.

No constants are given. Whether binding was seen depends on the method and setting. In cells and extracts the contact can be indirect. Binding can be weak; no strength is given.

“Coxsackievirus group B3 (CVB3) capsid protein VP2”: the binding entry is reported as “binds”.
